{"source": "PubChem BioAssay (Tox21)", "note": "This list was built around the results that the source calls inconclusive (neither active nor inactive); the mix of calls is not that of the screen. Potencies of inconclusive entries are doubtful fits and often do not repeat. Activity calls are given as the source filed them. Calls follow the shape of the full dose curve. % is scaled to controls: 0 for no effect and ±100 for the full control effect; potency is read from the fitted curve at half-maximal effect.", "data": [{"target": "Beta-2 adrenergic receptor (Homo sapiens) (UniProt P07550)", "test": "Adrenergic beta2 receptor (ADRB2) small molecule agonists, cell-based qHTS assay (AID 1963593);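 as to activation: CHO cells stably overexpressing human ADRB2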", "settings": "CHO-ADRB2 cells, cAMP HTRF, 30 min; activation: at 92.4 µM (top of the series) unless noted", "in_short": "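CHO cells stably over-expressing ADRB2 were plated overnight at 37C, then dosed with compounds plus a stimulation mix containing 100uM IBMX and 25uM Ro-20-1724 for 0.5hr at room temperature. cAMP was measured by HTRF competition, 1hr.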", "values": [{"smiles": "Cc1ccc(C#N)cc1", "activation": "inconclusive: -1.94%"}, {"smiles": "CC(O)C1CCCCC1", "note": "(stereo not given)", "activation": "inconclusive: 0.346%"}, {"smiles": "CCOC(=O)CCC(C)=O", "activation": "inconclusive: -5.73%"}, {"smiles": "c1ccc2scnc2c1", "activation": "inconclusive: -53.1%"}, {"smiles": "CC1=CCC(C(C)C)=CC1", "activation": "inconclusive: -6.9%"}, {"smiles": "CCN[C@H]1C[C@H](C)S(=O)(=O)c2sc(S(N)(=O)=O)cc21", "activation": "inactive: 2.27% [at 42.5 µM]"}, {"smiles": "Nc1ccccc1[N+](=O)[O-]", "activation": "inconclusive: 40.6%"}, {"smiles": "Nc1nc(N)c(-c2ccccc2)s1", "activation": "inconclusive: 11.1% [at 42.5 µM]"}, {"smiles": "O=c1[nH]c(=O)n([C@H]2C[C@H](O)[C@@H](CO)O2)cc1I", "activation": "inconclusive: 19.4% [at 42.5 µM]"}, {"smiles": "Cc1ccccc1OCC1CO1", "note": "(stereo not given)", "activation": "inactive: 36.5%"}, {"smiles": "C=C(C)CS(=O)(=O)O", "activation": "inconclusive: 47.5%"}, {"smiles": "Cc1ccc(Br)cc1", "activation": "inconclusive: 0.467%"}, {"smiles": "C/C=C/c1ccc(OC)c(OC)c1", "activation": "inactive: -2.85%"}, {"smiles": "C[N+]1(C)CCC(OC(=O)C(O)(c2ccccc2)C2CCCC2)C1", "note": "(stereo not given)", "activation": "inconclusive: 1.52% [at 42.5 µM]"}, {"smiles": "S=C(S)NCCNC(=S)S", "activation": "inactive: 7.37%"}, {"smiles": "CC(=O)c1sc(C)nc1C", "activation": "inconclusive: 29%"}, {"smiles": "Brc1ccccn1", "Potency": "inconclusive: 5450 nM [inhibitor, partial curve, poor fit]"}, {"smiles": "CCC(OCCCOC)OC(C)=O", "note": "(stereo not given)", "activation": "inactive: 6.3%"}, {"smiles": "Cc1cccc(C(=O)O)c1[N+](=O)[O-]", "activation": "inconclusive: 11.7%"}, {"smiles": "COc1cc(CNC(=O)CCCC/C=C/C(C)C)ccc1O", "activation": "inconclusive: -4.8%"}, {"smiles": "CC(C)C[P+](C)(CC(C)C)CC(C)C", "activation": "inconclusive: 48.1%"}, {"smiles": "CO[C@@]1(NC(=O)CSC[C@@H](N)C(=O)O)C(=O)N2C(C(=O)O)=C(CSc3nnnn3C)CS[C@@H]21", "activation": "inactive: 15.2% [at 42.5 µM]"}, {"smiles": "CCN(CC)CC(=O)Oc1ccc(NC(C)=O)cc1", "activation": "inconclusive: 3.02% [at 42.5 µM]"}, {"smiles": "C=CC(C)(CCC=C(C)C)OC(=O)C(C)C", "note": "(stereo not given)", "Potency": "inconclusive: 48.6 nM [rising, full curve, poor fit]"}, {"smiles": "CCCCCCOC(=O)CCCCC", "activation": "inconclusive: 0.993%"}, {"smiles": "CC1(C)O[C@H]2CC(=O)OC[C@]23[C@H]2CC[C@@]4(C)[C@H](c5ccoc5)OC(=O)[C@H]5O[C@]54[C@]2(C)C(=O)C[C@@H]13", "activation": "inconclusive: -9.02% [at 42.5 µM]"}, {"smiles": "Cc1c(Cl)cccc1[N+](=O)[O-]", "activation": "inactive: 12.9%"}, {"smiles": "CC1=CC(C)C(C=O)CC1", "note": "(stereo not given)", "activation": "inactive: -13.7%"}, {"smiles": "OC[C@@H](O)C(O)[C@@H](O)CO", "note": "(stereo not given in full)", "Potency": "inconclusive: 1740 nM [inhibitor, partial curve, poor fit]"}, {"smiles": "CC(C)=CCCC(C)C=O", "note": "(stereo not given)", "activation": "inconclusive: -1.4%"}, {"smiles": "COC(=O)c1ccc(C)cc1C1=NC(C)(C(C)C)C(=O)N1", "note": "(stereo not given)", "activation": "inconclusive: 19.8%"}, {"smiles": "C=O", "Potency": "inconclusive: 1280 nM [inhibitor, full curve]"}, {"smiles": "OCCC(F)(F)C(F)(F)C(F)(F)C(F)(F)C(F)(F)C(F)(F)F", "activation": "inactive: 2.25%"}, {"smiles": "C=CC(=O)NCOCC(C)C", "activation": "inactive: 6.91%"}, {"smiles": "N#CCCN(CCO)CCO", "activation": "inactive: 2.49%"}, {"smiles": "C[C@H]1O[C@@H](n2cc(F)c(=O)[nH]c2=O)[C@H](O)[C@@H]1O", "activation": "inactive: 7.89% [at 42.5 µM]"}, {"smiles": "Cc1ccc(C(=O)Nc2ccc(S(=O)(=O)O)c3cc(S(=O)(=O)O)cc(S(=O)(=O)O)c23)cc1NC(=O)c1cccc(NC(=O)Nc2cccc(C(=O)Nc3cc(C(=O)Nc4ccc(S(=O)(=O)O)c5cc(S(=O)(=O)O)cc(S(=O)(=O)O)c45)ccc3C)c2)c1", "activation": "inactive: 16.3% [at 42.5 µM]"}, {"smiles": "CCCCCCCCCCCCCCCC(=O)OCC", "activation": "inactive: 2.15%"}, {"smiles": "CCOC(=O)[C@@](C)(N)Cc1ccc(O)c(O)c1", "Potency": "inconclusive: 26600 nM [activator]"}, {"smiles": "OC1CCCc2ccccc21", "note": "(stereo not given)", "activation": "inconclusive: 2.67%"}]}]}
